PubChem BioAssay AID2551 (National Center for Advancing Translational Sciences (NCATS), 2010)
Among all 310,000 compounds or so, about 17,000 (5.5%) were called active. The inconclusive results got no clear call from the source; some entries with a clear call stand among them for comparison. Calls follow the shape of the dose curve; as a rule, active = well fitted inhibition curve with a large enough effect; inconclusive = small, poorly fitted or top-dose-only effect, or effect the other way; inactive = no such curve, though single readings can be large or run the other way. Where the call is inconclusive, the potency comes from a doubtful curve fit.

Sequences of proteins named here, by UniProt entry; tags and fusion partners are left off. A change or cut given only in a name is not applied to a line headed by its entry.
UniProt P51450: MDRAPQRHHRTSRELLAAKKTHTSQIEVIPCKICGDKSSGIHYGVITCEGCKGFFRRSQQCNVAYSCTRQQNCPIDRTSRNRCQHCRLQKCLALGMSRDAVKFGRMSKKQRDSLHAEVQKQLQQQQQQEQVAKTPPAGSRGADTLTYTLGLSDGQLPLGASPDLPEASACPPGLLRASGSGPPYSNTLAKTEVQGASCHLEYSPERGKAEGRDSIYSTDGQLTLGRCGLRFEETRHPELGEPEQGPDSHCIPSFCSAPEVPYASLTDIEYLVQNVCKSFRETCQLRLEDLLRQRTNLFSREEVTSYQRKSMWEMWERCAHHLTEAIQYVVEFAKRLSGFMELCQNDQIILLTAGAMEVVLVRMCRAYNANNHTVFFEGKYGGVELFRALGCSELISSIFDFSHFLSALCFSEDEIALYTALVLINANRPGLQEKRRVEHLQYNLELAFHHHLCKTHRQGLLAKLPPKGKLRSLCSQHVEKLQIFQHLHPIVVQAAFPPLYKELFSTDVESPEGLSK

Biological target: Nuclear receptor ROR-gamma (Mus musculus) (UniProt P51450)
Experiment: qHTS for inhibitors of ROR gamma transcriptional activity; also: nearly all actives have a fitted effect of over 60% in size
Details: Drosophila S2 Gal4-RORgamma UAS-luciferase reporter, 20 h; series mostly up to 53.6 µM
In short: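 Schneider cells (Drosophila), stable Gal4 DBD–ROR gamma + UAS-luc; 1 hr cmpd preincubation; Cu2+ induction 700 uM final; 20 hr ambient; luminescence.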
Potency is read from the fitted curve at half-maximal effect.

Structure (SMILES) | Potency
CCC(=NCc1ccco1)c1c(O)n(-c2ccc(OC)cc2)c(=O)[nH]c1=O | inconclusive: 15.8 µM [activator, partial curve]
O=C(Nc1nccs1)C(Cl)(Cl)Cl | inconclusive: 14.1 µM [inhibitor, single point]
O=C(Cc1ccccc1)N1CCN(CC2CC=CCC2)CC1 (centres undefined) | inconclusive: 1.26 µM [activator, full curve, poor fit]
CCC1CN2CCc3cc(OC)c(OC)cc3C2CC1CC1NCCc2cc(OC)c(OC)cc21 (centres undefined) | active: 6.31 µM
CN(C)c1ccc(P(=S)(N(C)C)N(C)C)cc1 | inconclusive: 3.98 µM [inhibitor, single point]
CC1CCCC(C)N1c1nnc(NC(=O)Cn2c(=O)oc3ccccc32)s1 (centres undefined) | inconclusive: 17.8 µM [inhibitor, single point]
Cc1ccnc(SCc2nc3ccccc3s2)n1 | inconclusive: 2.82 µM [activator, partial curve]
O=C(N/N=C/c1c(O)n(CCc2ccc(F)cc2)c(=O)[nH]c1=O)c1ccccc1 | inactive
Cc1cc(C)c(Cn2c(C(=O)O)c(C=O)c3ccccc32)c(C)c1 | inconclusive: 35.5 µM [activator, single point]
CCCNC(=O)c1c(N)n(Cc2ccc3c(c2)OCO3)c2nc3ccccc3nc12 | inactive
CSc1ccc(C(=O)C2CCCN(Cc3cnc(SC)nc3)C2)cc1 (centres undefined) | inactive
COCC(C)OC(=O)c1c(N)n(Cc2ccco2)c2nc3ccccc3nc12 (centres undefined) | inconclusive: 7.08 µM [activator, partial curve]
NP(=O)(OCC(F)(F)F)Oc1ccc(Cl)cc1 (centres undefined) | inconclusive: 0.0224 µM [activator, full curve, poor fit]
COc1ccc(OC)c(C2C(C#N)=C(N)Oc3c2c(C)nn3-c2ccc(C)cc2)c1 (centres undefined) | inconclusive: 10 µM [activator, partial curve, poor fit]
CN1C(=O)C(=Cc2ccccc2Oc2ccc(Cl)cc2)C(=O)N(C)C1=O | inconclusive: 1.78 µM [activator, partial curve, poor fit]
COc1ccc(Cn2c(O)c(/C=N/NC(=O)c3ccccc3O)c(=O)[nH]c2=O)cc1 | inconclusive: 10 µM [inhibitor, partial curve, poor fit]
CC(C)COC(=O)n1c(=O)oc2ccc(S(=O)(=O)N3CCCCC3)cc21 | inconclusive: 35.5 µM [inhibitor, single point]
O=C1NC(=O)C(=Cc2cccc(OCCOc3ccccc3)c2)C(=O)N1 | inconclusive: 2 µM [inhibitor, partial curve, poor fit]
CC1=C/C(=N\NC(=S)NCCc2ccccc2)CC(C)(C)C1 | active: 0.501 µM
CCN1C[C@@]2(COC)CC[C@H](O)[C@@]34[C@@H]2C[C@@H]([C@@H]13)[C@]1(O)C[C@@H](OC)C2C[C@H]4[C@H]1[C@H]2OC(C)=O | inactive
CNC(=S)N(C)CCc1cc2c(c(OC)c1/C=C1/C(=O)NC(=O)N(C)C1=O)OCO2 | inconclusive: 0.447 µM [activator, full curve, poor fit]
COC(=O)[C@@]1(Cc2ccccc2)[C@H]2c3cc(C(=O)N(C)C)n(C)c3C[C@H]2CN1C(=O)c1ccccc1 | inactive
CCCCn1c(=O)c(C(=O)NCc2ccccc2)c(O)c2ccccc21 | inconclusive: 22.4 µM [inhibitor, single point]

Structure (SMILES) | Potency
O=C(c1ccccc1)C(CN1CCCC1)c1ccccc1 (centres undefined) | active: 5.62 µM
Cn1c(O)c(C=Nc2ccccc2)c(=O)n(C)c1=O | inactive
CCOc1ccc(N2C(=O)NC(=O)/C(=C\c3ccc(N4CCCCC4)o3)C2=O)cc1 | inconclusive: 31.6 µM [activator, single point]
CCC(=Nc1ccc2c(c1)CCC2)c1c(O)n(-c2ccc(OC)cc2)c(=O)[nH]c1=O | inconclusive: 35.5 µM [activator, single point]
COc1ccc(CC2NC[C@H](O)[C@H]2OC(C)=O)cc1 (some centres undefined) | active: 0.631 µM
C=CCn1c(O)c(C(CC)=NCCc2c[nH]c3ccccc23)c(=O)[nH]c1=O | inactive
O=[N+]([O-])c1ccccc1CN1CC=C(c2ccc(F)cc2)CC1 | inconclusive: 35.5 µM [activator, single point]
OC12C3C4CC5C6C4C1C6C(C53)N2CCc1cccc(F)c1 (centres undefined) | inactive
O=C1CS[C@@H](c2ccccc2Cl)c2cc(Cl)ccc2N1 | inactive
N#Cc1cc2c(nc1SCC(=O)Nc1cc(Cl)ccc1Cl)C1CCN2CC1 | inconclusive: 15.8 µM [activator, partial curve]
CC/C(=N\N1CCCCCC1)c1c(O)n(-c2ccccc2C)c(=O)[nH]c1=O | inconclusive: 22.4 µM [activator, single point]
C#CCN1C(C)=C(C(=O)CCO)[C@@H](c2cccc(-n3oo3)c2)C(C(=O)OC)=C1C | inactive
CC1CC2CCC(O2)C(C)C(=O)OC(C)CC2CCC(O2)C(C)C(=O)OC(C)CC2CCC(O2)C(C)C(=O)OC(C)CC2CCC(O2)C(C)C(=O)O1 (centres undefined) | active: 0.112 µM
COc1ccc(NP(=O)(Nc2ccc(OC)cc2)Oc2ccccc2)cc1 | inconclusive: 5.62 µM [activator, partial curve]
Cc1nc2ccccc2c(=O)n1-c1ccc(-c2ccccc2)cc1 | inactive
CCCCC(CC)CNCC(O)c1ccccc1 (centres undefined) | inconclusive: 35.5 µM [inhibitor, single point]
CNP(=O)(Oc1ccccc1)OC12CC3CC(CC(C3)C1)C2 (centres undefined) | inconclusive: 6.31 µM [inhibitor, single point]
CCOC(=O)C1C2NC(=O)N(Cc3ccccc3)C1(C)Oc1c(OC)cccc12 (centres undefined) | inconclusive: 22.4 µM [activator, single point]
COc1ccc2c3c([nH]c2c1)C(C)=NCC3 | inconclusive: 12.6 µM [inhibitor, partial curve, poor fit]
CN(Cc1c[nH]c2ccccc12)C1CCCCC1 | inconclusive: 20 µM [activator, partial curve, poor fit]
CCOc1ccc(N(CC)S(=O)(=O)c2ccc3c(c2)oc(=O)n3C)cc1 | inconclusive: 3.98 µM [activator, full curve, poor fit]
COc1ccc(OCc2n[nH]c(=S)n2Cc2ccco2)cc1 | active: 5.62 µM
O=C(c1cn(Cc2ccccc2)c2ccccc12)N1CCCCC1 | inconclusive: 35.5 µM [activator, single point]

4 of these compounds, reformatted.

| Structure (SMILES) | Potency |
| --- | --- |
| Cn1c(O)c(C=Nc2ccccc2)c(=O)n(C)c1=O | inactive |
| CCOc1ccc(N2C(=O)NC(=O)/C(=C\c3ccc(N4CCCCC4)o3)C2=O)cc1 | inconclusive: 31.6 µM [activator, single point] |
| CCC(=Nc1ccc2c(c1)CCC2)c1c(O)n(-c2ccc(OC)cc2)c(=O)[nH]c1=O | inconclusive: 35.5 µM [activator, single point] |
| COc1ccc(CC2NC[C@H](O)[C@H]2OC(C)=O)cc1 (some centres undefined) | active: 0.631 µM |

Next part

Structure (SMILES) | Potency
Cc1ccc(-c2nc3ccccc3c(=O)n2-c2ccc(O)cc2)cc1 | inconclusive: 0.631 µM [inhibitor, single point]
CC(=O)C1CCC2C3CCC4CC(C)(O)CCC4(C)C3CCC12C (centres undefined) | inactive
CN1CCN(C(=O)COc2ccc(-c3nc4ccccc4s3)cc2)CC1 | active: 5.01 µM
O=C(c1ccc2c3c(cccc13)CC2)C1CCCN(CC2CC2)C1 (centres undefined) | inconclusive: 14.1 µM [inhibitor, single point]
CNc1ccc(C(=O)CC(O)CCC(C)C2OC(=O)CC(O)CC(=O)CC(O)CC(O)CC(O)CC(O)CC3(O)CC(O)C(C(=O)OC)C(CC(O[C@@H]4OC(C)C(O)C(N)C4O)/C=C/C=C/C=C/C=C/C=C/C=C/C=C/C2C)O3)cc1 (some centres undefined) | inactive
Cc1ccc(-c2n[nH]c(=S)n2-c2ccccc2)cc1 | inconclusive: 6.31 µM [inhibitor, single point]
c1nc[n]([Sn]([CH]2CCCCC2)([CH]2CCCCC2)[CH]2CCCCC2)n1 | inconclusive: 35.5 µM [inhibitor, single point]
Cc1cc(C(=O)N=Nc2c(O)n(C)c3ccccc23)c(C)o1 | inconclusive: 3.55 µM [inhibitor, partial curve, poor fit]
C[C@]12CC[C@H](O)CC1=CCC1C2CC[C@]2(C)C(=O)CC[C@@H]12 (some centres undefined) | inactive
Cc1ccc(NC(=O)OC(C)CNC(=O)Oc2cccc(C)c2)cc1 (centres undefined) | inconclusive: 2 µM [activator, partial curve, poor fit]
CC1(C)N(O)C2CCCCC2N1O (centres undefined) | active: 15.8 µM
NC(=S)N/N=C/c1coc2ccccc2c1=O | inconclusive: 17.8 µM [inhibitor, partial curve]
CC(C)(C)NC(=S)/N=C(\N)N[N+](=O)[O-] | active: 10 µM
CCCc1nc2ccccc2c(=O)n1-c1cccc(OC)c1 | inactive
O=c1oc2ccccc2c(O)c1Cc1c(O)c2ccccc2oc1=O | inactive
Cc1cc(NC(=O)COC(=O)c2c(C)nn(Cc3ccccc3)c2C)no1 | inactive
Clc1ccc(-c2nc3ccc(Cl)cn3c2CN2CCOCC2)cc1 | inconclusive: 15.8 µM [inhibitor, single point]
O=C(CNC(=O)c1ccc(Cl)cc1)Nc1ccc(Br)cc1C(=O)c1ccccc1 | inconclusive: 31.6 µM [activator, single point]
COC1CC(OC2CCC3(C)C(CCC4C3CCC3(C)C(C5=CC(=O)OC5)C(OC(C)=O)CC43O)C2)OC(C)C1OC1OC(COC2OC(CO)C(O)C(O)C2O)C(O)C(O)C1O (centres undefined) | inactive
CCCCn1c(=O)c(C=Nc2cccnc2Cl)c(O)n(CCCCl)c1=O | inactive
CC(C)(C)n1cc(C(=O)c2ccc3ccccc3c2O)cn1 | inconclusive: 15.8 µM [inhibitor, single point]
N/C(=N\N=C\c1ccc(O)cc1O)N[N+](=O)[O-] | inconclusive: 35.5 µM [inhibitor, single point]
O=c1[nH]c2ccccc2n1C1CCN(Cc2ccc(-c3[nH]c4cc5ncnc5cc4nc3-c3ccccc3)cc2)CC1 | inactive
